Laboratory results taken from PMC9242475.
These are yes or no findings as the source states them, for the method shown. In cells and extracts the contact can be indirect.

Chains of the proteins cited; added tags and fusions are not shown.
UniProt P49792: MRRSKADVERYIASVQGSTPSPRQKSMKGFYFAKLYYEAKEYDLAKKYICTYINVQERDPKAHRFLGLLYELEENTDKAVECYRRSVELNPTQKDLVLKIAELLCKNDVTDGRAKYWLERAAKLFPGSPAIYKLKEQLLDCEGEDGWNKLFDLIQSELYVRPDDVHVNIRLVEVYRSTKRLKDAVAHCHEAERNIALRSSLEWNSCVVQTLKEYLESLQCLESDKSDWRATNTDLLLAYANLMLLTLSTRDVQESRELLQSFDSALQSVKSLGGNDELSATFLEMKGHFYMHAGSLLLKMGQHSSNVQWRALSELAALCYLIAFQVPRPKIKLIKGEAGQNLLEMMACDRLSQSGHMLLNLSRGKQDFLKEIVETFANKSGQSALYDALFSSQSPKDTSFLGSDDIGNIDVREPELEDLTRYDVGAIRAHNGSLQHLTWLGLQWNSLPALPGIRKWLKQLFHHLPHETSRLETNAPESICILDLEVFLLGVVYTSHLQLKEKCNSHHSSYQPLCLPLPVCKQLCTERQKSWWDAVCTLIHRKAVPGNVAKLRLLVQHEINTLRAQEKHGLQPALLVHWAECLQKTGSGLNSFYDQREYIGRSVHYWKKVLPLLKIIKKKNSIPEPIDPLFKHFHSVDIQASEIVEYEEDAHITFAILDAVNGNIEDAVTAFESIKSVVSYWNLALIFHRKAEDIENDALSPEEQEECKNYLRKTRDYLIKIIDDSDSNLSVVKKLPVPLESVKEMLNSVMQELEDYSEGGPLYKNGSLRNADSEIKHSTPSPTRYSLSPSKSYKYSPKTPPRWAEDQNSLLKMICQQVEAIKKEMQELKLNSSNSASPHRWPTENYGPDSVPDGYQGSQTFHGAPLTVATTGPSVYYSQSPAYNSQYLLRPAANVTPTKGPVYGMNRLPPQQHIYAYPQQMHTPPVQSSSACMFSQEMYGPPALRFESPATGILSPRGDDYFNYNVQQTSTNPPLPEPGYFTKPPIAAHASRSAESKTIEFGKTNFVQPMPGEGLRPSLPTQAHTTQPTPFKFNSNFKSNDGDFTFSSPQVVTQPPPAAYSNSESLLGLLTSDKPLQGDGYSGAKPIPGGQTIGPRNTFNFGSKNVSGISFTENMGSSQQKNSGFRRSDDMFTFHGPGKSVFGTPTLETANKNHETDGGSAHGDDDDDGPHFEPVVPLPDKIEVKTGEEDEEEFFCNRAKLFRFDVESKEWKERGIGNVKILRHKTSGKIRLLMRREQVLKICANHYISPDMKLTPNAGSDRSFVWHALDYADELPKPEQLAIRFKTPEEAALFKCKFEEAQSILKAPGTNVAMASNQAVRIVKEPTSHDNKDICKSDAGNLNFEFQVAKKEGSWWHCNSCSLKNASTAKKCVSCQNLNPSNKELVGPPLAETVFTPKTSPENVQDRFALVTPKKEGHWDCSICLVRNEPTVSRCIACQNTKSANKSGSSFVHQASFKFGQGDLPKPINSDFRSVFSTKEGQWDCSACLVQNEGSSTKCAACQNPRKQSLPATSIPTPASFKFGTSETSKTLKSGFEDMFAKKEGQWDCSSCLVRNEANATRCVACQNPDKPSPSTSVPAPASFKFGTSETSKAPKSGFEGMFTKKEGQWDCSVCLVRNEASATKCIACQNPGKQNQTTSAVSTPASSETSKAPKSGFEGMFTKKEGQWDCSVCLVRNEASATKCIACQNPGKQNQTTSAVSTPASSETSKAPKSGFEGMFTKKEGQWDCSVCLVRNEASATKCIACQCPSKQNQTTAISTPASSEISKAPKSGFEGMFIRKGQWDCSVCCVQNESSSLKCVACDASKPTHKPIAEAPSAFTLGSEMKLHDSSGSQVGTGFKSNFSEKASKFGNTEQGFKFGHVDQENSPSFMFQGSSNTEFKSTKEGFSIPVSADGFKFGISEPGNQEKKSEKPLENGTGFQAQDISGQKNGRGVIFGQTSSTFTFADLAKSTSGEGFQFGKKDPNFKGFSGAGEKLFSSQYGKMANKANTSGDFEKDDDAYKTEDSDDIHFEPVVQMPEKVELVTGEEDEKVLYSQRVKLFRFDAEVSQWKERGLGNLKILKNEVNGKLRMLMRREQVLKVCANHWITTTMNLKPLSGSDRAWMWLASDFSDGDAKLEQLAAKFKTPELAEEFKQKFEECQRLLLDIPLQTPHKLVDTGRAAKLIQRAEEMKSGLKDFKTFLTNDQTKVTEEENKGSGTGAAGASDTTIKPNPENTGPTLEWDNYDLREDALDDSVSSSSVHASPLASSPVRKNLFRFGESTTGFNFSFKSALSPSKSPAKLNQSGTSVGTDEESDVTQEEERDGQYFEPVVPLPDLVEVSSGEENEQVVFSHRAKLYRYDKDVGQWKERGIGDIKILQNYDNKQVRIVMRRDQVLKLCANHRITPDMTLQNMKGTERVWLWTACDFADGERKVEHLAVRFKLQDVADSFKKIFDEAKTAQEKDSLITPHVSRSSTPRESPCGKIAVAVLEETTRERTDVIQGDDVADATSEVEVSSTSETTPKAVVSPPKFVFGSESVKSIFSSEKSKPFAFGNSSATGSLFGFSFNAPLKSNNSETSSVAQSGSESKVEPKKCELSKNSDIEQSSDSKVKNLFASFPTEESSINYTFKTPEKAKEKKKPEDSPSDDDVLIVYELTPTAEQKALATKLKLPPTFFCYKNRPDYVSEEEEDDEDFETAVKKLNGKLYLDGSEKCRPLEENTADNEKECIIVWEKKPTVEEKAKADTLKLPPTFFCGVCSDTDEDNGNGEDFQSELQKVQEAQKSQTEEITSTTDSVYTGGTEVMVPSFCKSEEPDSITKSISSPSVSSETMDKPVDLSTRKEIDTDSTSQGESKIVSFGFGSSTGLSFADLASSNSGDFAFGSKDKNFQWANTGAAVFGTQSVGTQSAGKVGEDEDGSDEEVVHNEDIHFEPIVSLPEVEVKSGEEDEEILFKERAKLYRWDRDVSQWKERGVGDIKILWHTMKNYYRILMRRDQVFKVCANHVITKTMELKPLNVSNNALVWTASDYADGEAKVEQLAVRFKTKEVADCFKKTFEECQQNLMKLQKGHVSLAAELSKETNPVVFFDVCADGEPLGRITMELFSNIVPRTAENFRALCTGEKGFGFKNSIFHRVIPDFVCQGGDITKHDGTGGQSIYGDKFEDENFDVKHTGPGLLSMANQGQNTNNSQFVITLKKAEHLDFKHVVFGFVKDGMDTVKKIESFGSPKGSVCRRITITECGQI
UniProt Q93008: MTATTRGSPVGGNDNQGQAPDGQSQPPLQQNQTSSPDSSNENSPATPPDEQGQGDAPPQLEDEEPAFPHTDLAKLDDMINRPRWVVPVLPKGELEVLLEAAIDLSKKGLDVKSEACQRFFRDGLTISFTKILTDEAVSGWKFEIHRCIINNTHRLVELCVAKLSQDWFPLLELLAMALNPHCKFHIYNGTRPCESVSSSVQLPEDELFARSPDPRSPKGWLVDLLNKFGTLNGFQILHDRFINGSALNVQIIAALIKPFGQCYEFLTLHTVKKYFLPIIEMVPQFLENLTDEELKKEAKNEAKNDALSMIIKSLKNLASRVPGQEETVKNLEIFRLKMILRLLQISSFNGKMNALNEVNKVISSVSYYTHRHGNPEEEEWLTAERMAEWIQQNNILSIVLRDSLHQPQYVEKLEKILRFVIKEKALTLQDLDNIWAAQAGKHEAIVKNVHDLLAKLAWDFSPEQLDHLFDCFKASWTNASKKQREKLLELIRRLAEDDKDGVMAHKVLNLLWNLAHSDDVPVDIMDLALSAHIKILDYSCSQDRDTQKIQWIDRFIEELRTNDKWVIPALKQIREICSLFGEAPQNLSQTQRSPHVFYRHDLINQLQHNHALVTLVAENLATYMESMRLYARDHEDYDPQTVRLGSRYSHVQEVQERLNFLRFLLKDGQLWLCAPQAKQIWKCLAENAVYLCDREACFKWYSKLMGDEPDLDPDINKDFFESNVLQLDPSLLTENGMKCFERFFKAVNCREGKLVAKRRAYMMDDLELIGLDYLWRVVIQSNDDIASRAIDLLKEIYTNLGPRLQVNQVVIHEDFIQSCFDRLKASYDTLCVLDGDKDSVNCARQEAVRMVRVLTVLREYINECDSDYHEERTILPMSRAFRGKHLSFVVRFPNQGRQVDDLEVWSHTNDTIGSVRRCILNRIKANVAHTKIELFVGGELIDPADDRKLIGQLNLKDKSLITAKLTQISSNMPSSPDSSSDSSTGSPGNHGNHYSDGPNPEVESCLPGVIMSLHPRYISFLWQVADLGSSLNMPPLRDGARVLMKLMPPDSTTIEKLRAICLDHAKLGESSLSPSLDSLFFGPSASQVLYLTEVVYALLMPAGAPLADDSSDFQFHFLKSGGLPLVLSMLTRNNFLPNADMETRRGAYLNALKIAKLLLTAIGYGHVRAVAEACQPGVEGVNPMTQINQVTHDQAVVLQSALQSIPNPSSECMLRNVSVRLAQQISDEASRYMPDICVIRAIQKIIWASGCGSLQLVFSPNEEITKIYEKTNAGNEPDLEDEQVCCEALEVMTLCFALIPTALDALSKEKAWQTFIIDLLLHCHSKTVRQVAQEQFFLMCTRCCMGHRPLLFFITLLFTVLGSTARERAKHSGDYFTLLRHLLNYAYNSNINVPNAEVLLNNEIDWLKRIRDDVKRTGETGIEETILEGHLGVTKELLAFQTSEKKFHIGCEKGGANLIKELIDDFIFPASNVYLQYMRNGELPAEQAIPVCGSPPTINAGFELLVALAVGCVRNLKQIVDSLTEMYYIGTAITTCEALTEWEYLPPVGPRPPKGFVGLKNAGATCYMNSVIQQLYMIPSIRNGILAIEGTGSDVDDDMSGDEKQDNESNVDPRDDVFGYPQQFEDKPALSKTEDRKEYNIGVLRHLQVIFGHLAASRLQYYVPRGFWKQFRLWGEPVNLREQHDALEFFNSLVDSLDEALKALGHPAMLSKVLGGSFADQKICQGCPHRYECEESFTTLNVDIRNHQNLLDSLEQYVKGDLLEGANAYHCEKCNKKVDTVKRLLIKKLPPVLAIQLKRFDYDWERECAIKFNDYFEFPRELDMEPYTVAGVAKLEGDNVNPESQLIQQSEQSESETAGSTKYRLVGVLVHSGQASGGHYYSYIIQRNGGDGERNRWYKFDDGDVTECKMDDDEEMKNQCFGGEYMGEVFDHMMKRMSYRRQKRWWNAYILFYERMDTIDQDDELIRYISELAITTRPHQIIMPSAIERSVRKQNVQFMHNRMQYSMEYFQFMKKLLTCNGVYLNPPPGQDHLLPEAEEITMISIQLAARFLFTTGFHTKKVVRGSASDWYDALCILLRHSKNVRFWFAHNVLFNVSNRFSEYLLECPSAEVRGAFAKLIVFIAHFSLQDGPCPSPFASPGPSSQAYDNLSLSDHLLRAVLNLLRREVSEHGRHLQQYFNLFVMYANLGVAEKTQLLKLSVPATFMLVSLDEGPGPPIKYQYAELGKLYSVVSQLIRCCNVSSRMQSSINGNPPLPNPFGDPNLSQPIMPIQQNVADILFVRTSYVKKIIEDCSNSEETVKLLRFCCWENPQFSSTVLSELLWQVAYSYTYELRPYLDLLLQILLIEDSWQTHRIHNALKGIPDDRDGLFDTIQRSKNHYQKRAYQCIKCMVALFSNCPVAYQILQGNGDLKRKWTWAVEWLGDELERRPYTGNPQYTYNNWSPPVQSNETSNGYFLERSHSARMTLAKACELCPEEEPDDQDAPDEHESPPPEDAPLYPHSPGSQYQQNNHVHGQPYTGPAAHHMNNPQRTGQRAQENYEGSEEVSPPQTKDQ

Biological target: Ran-binding protein 2 (human (endogenous in HEK293)) (UniProt P49792)
Experiment: co-IP

ubiquitin-specific protease 9x (from UniProt Q93008 1-2554) (enzyme)
binding: no binding
